Experimental data as given in paper PMC11167181.

Molecular target: T1, peroxiredoxin 5 (mouse (endogenous in C2C12)) (UniProt P99029)
T1 sequence: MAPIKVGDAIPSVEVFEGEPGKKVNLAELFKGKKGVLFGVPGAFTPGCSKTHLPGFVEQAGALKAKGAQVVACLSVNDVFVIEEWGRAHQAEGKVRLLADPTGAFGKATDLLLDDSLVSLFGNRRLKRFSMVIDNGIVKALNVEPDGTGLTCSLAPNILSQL
Test: co-IP; C2C12 myotube lysates mixed with the indicated antibody and protein A/G-agarose beads, 4 h at 4°C; PRDX5 precipitated, Nrf2 and UNG1 detected by Western blotting; cells treated with TBHP with or without myricanol (MY)

Substance: UNG1 (from UniProt P97931-2)
- binding: binds

No constants are given. Whether binding was seen depends on the method and setting. In cells and extracts the contact can be indirect. Binding can be weak; no strength is given.
